Data taken from ChEMBL document CHEMBL3988442, “University of Dundee, Small-Polar-MMV Screening Library” (2021).

The chains behind the UniProt entries cited, without tags or fusion partners. Residues count along the entry.
UniProt P9WFT3, whole entry: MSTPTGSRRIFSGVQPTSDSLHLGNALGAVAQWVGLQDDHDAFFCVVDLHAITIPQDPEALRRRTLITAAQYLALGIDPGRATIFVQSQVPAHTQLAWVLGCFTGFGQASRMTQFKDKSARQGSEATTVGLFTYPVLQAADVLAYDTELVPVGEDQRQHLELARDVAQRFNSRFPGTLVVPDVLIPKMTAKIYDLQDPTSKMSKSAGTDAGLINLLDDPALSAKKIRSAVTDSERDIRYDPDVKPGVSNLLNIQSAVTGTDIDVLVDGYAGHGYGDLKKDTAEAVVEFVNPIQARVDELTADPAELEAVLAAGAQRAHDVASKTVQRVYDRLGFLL
UniProt P9WPC5, whole entry: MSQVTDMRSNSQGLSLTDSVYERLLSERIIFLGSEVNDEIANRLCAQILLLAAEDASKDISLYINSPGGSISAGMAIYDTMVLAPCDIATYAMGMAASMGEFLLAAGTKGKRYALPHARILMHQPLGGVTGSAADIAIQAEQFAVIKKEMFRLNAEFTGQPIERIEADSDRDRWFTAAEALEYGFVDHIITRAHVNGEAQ
UniProt P9WPC3, whole entry partner: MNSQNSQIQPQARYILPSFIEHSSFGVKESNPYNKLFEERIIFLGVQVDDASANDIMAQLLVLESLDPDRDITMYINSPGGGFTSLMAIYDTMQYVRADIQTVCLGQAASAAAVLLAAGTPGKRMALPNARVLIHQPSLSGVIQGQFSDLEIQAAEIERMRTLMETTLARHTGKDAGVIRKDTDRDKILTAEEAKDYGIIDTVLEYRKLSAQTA
UniProt Q8IDJ8, 1-583: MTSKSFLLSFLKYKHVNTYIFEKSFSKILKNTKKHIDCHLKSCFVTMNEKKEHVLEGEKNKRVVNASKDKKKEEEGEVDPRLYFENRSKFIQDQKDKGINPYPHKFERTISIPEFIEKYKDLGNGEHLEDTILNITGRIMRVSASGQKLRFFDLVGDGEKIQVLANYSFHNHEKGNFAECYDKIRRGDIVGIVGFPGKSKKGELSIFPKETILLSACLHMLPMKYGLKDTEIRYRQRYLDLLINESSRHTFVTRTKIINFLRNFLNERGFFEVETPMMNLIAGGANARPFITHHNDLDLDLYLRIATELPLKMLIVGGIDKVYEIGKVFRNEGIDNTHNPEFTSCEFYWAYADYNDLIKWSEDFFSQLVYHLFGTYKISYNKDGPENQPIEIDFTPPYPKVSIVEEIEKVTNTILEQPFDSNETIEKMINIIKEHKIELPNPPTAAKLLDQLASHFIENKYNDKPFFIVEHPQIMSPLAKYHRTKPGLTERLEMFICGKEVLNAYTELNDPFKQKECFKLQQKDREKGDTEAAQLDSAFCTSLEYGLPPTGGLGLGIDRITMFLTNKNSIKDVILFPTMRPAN
UniProt P9WNZ1, whole entry: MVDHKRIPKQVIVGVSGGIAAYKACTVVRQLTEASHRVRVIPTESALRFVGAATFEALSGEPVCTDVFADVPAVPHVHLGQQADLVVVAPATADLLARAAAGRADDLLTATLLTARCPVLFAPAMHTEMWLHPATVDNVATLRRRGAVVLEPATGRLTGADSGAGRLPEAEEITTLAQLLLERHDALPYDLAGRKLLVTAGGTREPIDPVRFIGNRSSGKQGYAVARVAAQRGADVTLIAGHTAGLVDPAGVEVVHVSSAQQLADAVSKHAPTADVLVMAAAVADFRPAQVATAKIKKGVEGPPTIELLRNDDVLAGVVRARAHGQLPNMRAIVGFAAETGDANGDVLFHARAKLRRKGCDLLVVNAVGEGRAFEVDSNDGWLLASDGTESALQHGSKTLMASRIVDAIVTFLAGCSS

Each number is a percent effect as filed. The record does not define 0% and 100%; most values in the screen are far below 50% and negative numbers occur (in some assays of this library far below -100). The compounds are a random part of those screened. A dash means the value is not listed here; it may have been measured.

MtTrpRS: 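Tryptophan-tRNA ligase, Mycobacterium tuberculosis (UniProt P9WFT3). Enzyme assay of tryptophanyl-tRNA synthetase; the read-out is not stated. Compounds at 10 µM. Direction is not recorded; retested compounds ran higher, which suggests that high means inhibition. Size under these conditions: about 65,000 compounds, about 64 of them at 50% or above in at least one test.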
ClpP1P2: 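ClpP1P2, Mycobacterium tuberculosis (UniProt P9WPC5 and UniProt P9WPC3). Protease assay of ClpP1P2, read by the AMC dye that it sets free. Compounds at 50 µM. Direction is inferred from only a few compounds that gave an IC50; most scored high, so higher reads as stronger inhibition. Most other retested compounds had strongly negative values. Size under these conditions: about 69,000 compounds, about 10 of them at 50% or above in at least one test.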
Leishmania in macrophages: 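Cell assay of Leishmania donovani living inside macrophages; the read-out is not stated. Concentration: 30 µM. Higher reads as stronger inhibition (inferred: compounds with an IC50 in retests scored well above the rest). About 69,000 compounds were tested under these conditions; 1.5% (about 1,000) showed 50% or more at least once.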
PfKRS1: 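Enzyme assay of the cytosolic lysyl-tRNA synthetase in 384-well plates, read by luminescence. Target: Lysine-tRNA ligase, Plasmodium falciparum 3D7 (UniProt Q8IDJ8). Tested at 30 µM. Higher reads as stronger inhibition, judged from the few compounds that gave an IC50. Of about 69,000 compounds tested this way, about 49 (0.071%) reached 50% or more in at least one test.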
CoaBC: 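Coenzyme A biosynthesis protein CoaBC, Mycobacterium tuberculosis (UniProt P9WNZ1). Enzyme assay of CoaBC with a phosphate dye (Biomol Green) read at 650 nm. Compounds at 30 µM. Direction is inferred from only a few compounds that gave an IC50; most scored high, so higher reads as stronger inhibition. Most strong results did not repeat in a second test. Size under these conditions: about 67,000 compounds, about 40 of them at 50% or above in at least one test.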

compound	MtTrpRS	ClpP1P2	Leishmania in macrophages	PfKRS1	CoaBC
CNC(=O)c1cnc(/C=C/c2cc(OC)c3c(c2)OCCO3)s1	2.922%	2.93%	-3.39%	3.242%	11.51%
CN1CCOC(CNCc2c(Cl)nc3ccccn23)C1 (centres unmarked)	0.4454%	-10.68%	9.574%	-0.6426%	6.743%
Cn1ccnc1C(NCc1ccc(Br)cc1)c1ccccc1 (centres unmarked)	2.322%	-35.66%	7.272%	0.8697%	8.344%
COCCN1CCN(C(=O)N2CCCC2)Cc2ccc(C)nc21	4.321%	5.641%	-	-5.737%	-2.596%
Cc1ccsc1CNCCCOc1ccccn1	1.147%	-13.32%	-17.78%	-1.607%	2.87%
O=C(CCCNC(=O)C1CCCO1)Nc1ccc(Cl)cc1 (centres unmarked)	-3.689%	16.36%	15.42%	-1.144%	-4.096%
Cn1c(C2CC2)nc2c1CCN(CC(=O)Nc1nccs1)C2	-5.711%	-10.67%	30.94%	2.292%	-6.591%
Cc1nnc(NCc2ccc(SC(F)F)cc2)o1	-1.467%	-4.728%	-7.638%	0.4116%	0.813%
O=C(O)Cn1nc(-c2ccccc2F)ccc1=O	0.06324%	-2.999%	6.414%	1.647%	-7.99%
O=C(NCc1ccc2c(c1)OCO2)Nc1cccnc1N1CCCC1	-5.508%	-36.27%	35.17%	0.4729%	-5.006%
CCc1nc2c(s1)C(N(C)C(=O)c1csnn1)CCC2 (centres unmarked)	-3.039%	-3.375%	5.575%	5.399%	7.393%
O=C1NC2(CCN(C/C=C/c3ccccc3)CC2)CC1c1ccccc1 (centres unmarked)	11.72%	-4.26%	-8.611%	-4.606%	17.6%
Cc1cnn(CC2CCCN2Cc2nnc(Cc3ccccc3)o2)c1 (centres unmarked)	-3.052%	4.783%	-3.784%	2.143%	0.1186%
Cc1cc(O)cc(=O)n1CCCC(=O)Nc1n[nH]c2cc(Br)ccc12	5.756%	-19.94%	4.064%	-0.2687%	0.4843%
COCc1noc(C2(c3ccc(OC)cc3)CCOCC2)n1	3.793%	-3.723%	19.44%	-4.07%	0.6397%
CS(=O)(=O)CCCN(CCc1cccc(F)c1)C1CC1	3.818%	-14.4%	-12.41%	-2.658%	9.752%
CC(CCN(C)C)NC(=O)c1cccc(C(F)(F)F)c1F (centres unmarked)	-2.886%	-0.0173%	11.1%	2.721%	5.835%
c1cnc(N2CCOC3(CCN(CC4CCOC4)CC3)C2)nc1 (centres unmarked)	-2.931%	4.005%	-	5.169%	1.486%
O=C(O)C(F)(F)F.O=C(O)C(F)(F)F.[H][C@@]12CC(COc3ccccn3)C[C@@]1([H])N(CC1CCOCC1)CCO2 (some centres unmarked)	-	-	4.1%	-	-
CC(Nc1cccc(COCc2ccco2)c1)C(=O)NC(N)=O (centres unmarked)	0.5693%	-12.3%	-12.47%	-0.7359%	2.421%
Cc1nc(N2CCOCC2)nc2c1CN(C(=O)Cc1ccccn1)CC2	-2.403%	-20.39%	6.158%	4.115%	-0.9091%
COc1ccccc1CC1CCCN1C(=O)c1cn[nH]c1C (centres unmarked)	-1.445%	-1.801%	21.13%	-0.5991%	5.652%
Cc1noc(C)c1CN1CCN(C)c2ncccc2C1	0.834%	-12.45%	-	-4.179%	1.607%
CNC(=O)CC1CCN(Cc2nc(-c3cccc(Cl)c3)oc2C)CC1	0.0774%	-5.98%	15.07%	-0.9944%	-37.74%
CC(CS(C)(=O)=O)N(C(=O)c1ccc(Cl)s1)C1CC1 (centres unmarked)	-1.837%	-6.783%	11.89%	3.972%	3.023%
Cn1ccnc1CN1CCCN(C(=O)c2ccc3cc[nH]c3c2)CC1	-2.861%	-20.77%	15.42%	-0.06078%	0.1277%
O=C(NC1CC1)C(c1ccccc1)N1CCn2c(nnc2C2CC2)C1 (centres unmarked)	0.4011%	-10.48%	17.19%	1.118%	1.842%
Cc1ccc2nc(-c3cnc(N)nc3)c(C)c(C(=O)N(C)C)c2c1	21.44%	-4.806%	8.149%	-3.321%	9.244%
Cc1cnn(CCNCc2ccc(OCc3noc(C)n3)cc2)c1	-0.5069%	-5.346%	8.516%	4.14%	-13.22%
Cc1nccn1-c1cccc(N2CCC(OCC3CCCCO3)CC2)n1 (centres unmarked)	1.224%	-6.824%	42.77%	2.324%	4.151%
Cc1ccccc1CNC(=O)N1CCC(n2cncn2)CC1	-0.5206%	-1.795%	9.912%	0.1378%	8.323%
Cc1nn(C(C)C)c2cn(CC(=O)NC3CCSCC3)nc12	2.724%	16.96%	27.59%	6.781%	4.018%
Cn1ccnc1-c1ccc(NCC2COc3ccccc3O2)nn1 (centres unmarked)	-0.4566%	-10.66%	-1.414%	0.02376%	3.606%
CCc1nc(CN(C)C2CCN(Cc3nnc(C4CCC4)o3)C2)no1 (centres unmarked)	2.215%	-0.5722%	5.667%	1.755%	-11.8%
CCCS(=O)(=O)N1CCC2(CC1)CC(N1CCCC1)c1ccccc12.O=C(O)C(F)(F)F (centres unmarked)	-	-	5.652%	-	-
O=C1C(N2CCN(c3ccc(O)cc3)CC2)CCN1C1CCOCC1 (centres unmarked)	10.53%	0.6914%	-7.233%	6.801%	5.645%
COc1ccccc1OC1CCN(C(=O)C2CCCN(C)C2)CC1 (centres unmarked)	2.252%	-1.835%	3.202%	-0.1162%	1.585%
CC1(c2ncc(CN3CCN(c4ncccn4)CC3)cn2)CCCCO1 (centres unmarked)	-9.763%	-11.43%	25.82%	-0.5661%	2.959%
COCc1ccc(C(=O)N2CCCN(C(=O)OCC(C)C)CC2)cc1	-2.004%	7.044%	-35.82%	-1.122%	-1.096%
COc1ccccc1-c1nnc([C@H]2CCN(C(=O)C3CC3)C2)o1	13.03%	-8.404%	-20.32%	-1.553%	13.32%

For reference, 4 entries once more:

* Cn1ccnc1C(NCc1ccc(Br)cc1)c1ccccc1 (centres unmarked) : MtTrpRS: 2.322%; ClpP1P2: -35.66%; Leishmania in macrophages: 7.272%; PfKRS1: 0.8697%; CoaBC: 8.344%
* CCc1nc(CN(C)C2CCN(Cc3nnc(C4CCC4)o3)C2)no1 (centres unmarked) : MtTrpRS: 2.215%; ClpP1P2: -0.5722%; Leishmania in macrophages: 5.667%; PfKRS1: 1.755%; CoaBC: -11.8%
* Cc1ccc2nc(-c3cnc(N)nc3)c(C)c(C(=O)N(C)C)c2c1 : MtTrpRS: 21.44%; ClpP1P2: -4.806%; Leishmania in macrophages: 8.149%; PfKRS1: -3.321%; CoaBC: 9.244%
* CC(Nc1cccc(COCc2ccco2)c1)C(=O)NC(N)=O (centres unmarked) : MtTrpRS: 0.5693%; ClpP1P2: -12.3%; Leishmania in macrophages: -12.47%; PfKRS1: -0.7359%; CoaBC: 2.421%